# Substitutions are numbered along the chain they refer to. Results are given in words; binding and its absence hold for the method and conditions named. Some binding calls cover weakened binding; strength is not graded here.
# Sequences of proteins named here, by UniProt entry; tags and fusion partners are left off. Residues count along the entry.
# UniProt P40259, residues 29-159: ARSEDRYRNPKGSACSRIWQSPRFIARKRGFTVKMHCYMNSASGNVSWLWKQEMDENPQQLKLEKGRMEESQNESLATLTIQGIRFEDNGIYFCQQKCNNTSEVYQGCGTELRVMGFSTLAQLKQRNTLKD
# B1: monoclonal antibody mAb017 of mouse hybridoma cell (antibody, V domains shown)
# VH: QVQLQQSGAELARPGASVKLSCKASGYTFTTYGINWVKQRTGQGLEWIGEIYPRSGNIYYNEKFKGKATLTADKSSSTAYMELRSLTSEDSAVYFCARGSDYDGDFAYWGQGTLVTVSA
# VL: DVLMTQTPLSLPVSLGDQASISCRSSQSIVHHDGNTYLEWYLQKPGQSPKLLIYKVSNRFSGVPDRFSGSGSGTDFTLKISRVEAEDLGVYYCFQGSHVPWTFGGGTQLEIK
# B2: humanized antibody hAb015-10 (antibody, human IgG1, kappa, V domains shown)
# VH: EVQLVQSGAEVKKPGSSVKVSCKASGSSFSSYGINWVKQAPGQGLEWIGEIFPRSGNTYYNEKFEGRATLTADKSTSTAYMELRSLRSEDTAVYYCAKGDLGDFDYWGQGTTVTVSS
# VL: DFVMTQTPLSLPVTPGEPASISCRSSQSIVHSDGNTYFEWYLQKPGQSPKLLIYKVSNRFSGVPDRFSGSGSGTDFTLKISRVEAEDVGVYYCFQGSHVPWTFGGGTKVEIKR
# B3: humanized antibody hAb017-10 (antibody, human IgG1, kappa, V domains shown)
# VH: EVQLVQSGAEVKKPGASVKVSCKASGYTFTTYGINWVKQAPGQGLEWIGEIYPRSGNIYYNEKFKGKATLTADKSTSTAYMELRSLRSDDTAVYYCARGSDYDGDFAYWGQGTLVTVSS
# VL: B2 VL with F2V, S32H, F38L, K50Q
# B4: monoclonal antibody mAb015 of mouse hybridoma cell (antibody, V domains shown)
# VH: QVQLQQSGAELARPGASVKLSCKASGSSFTSYGINWVKQRTGQGLEWIGEIFPRSGNTYYNEKFEGKATLTADKSSSTAYMELRSLTSEDSAVYFCAKGDLGDFDYWGQGTTLTVSS
# VL: B1 VL with V2F, S14R, H32S, L38F, Q108K
# Experiments:
# [1] = molecular target: human CD79B antigen (recombinant, coated in ELISA) (human) (UniProt P40259); experiment: ELISA, purified antibody diluted 1:10 from 100 nM on coated antigen 1 µg/mL
# [2] = molecular target: human CD79B antigen (recombinant, coated in ELISA) (human) (UniProt P40259); experiment: ELISA, FACS, SPR (no details or numbers given)
Binder,binding [1],binding [2]
B1,binds,
B2,,binds
B3,,binds
B4,binds,

# From patent publication US20230144203A1 (SHANGHAI SENHUI MEDICINE CO., LTD., priority 2020, published 2023)
